Results published in PMC10943099.
No constants are given. Whether binding was seen depends on the method and setting. Binding seen in cells or lysates may run through a third protein.

Target: NOT box-truncated mutant of CNOT3 (exogenous, detected with Flag antibody) (human)
Test: proximity ligation; PLA on MOLM13 lines overexpressing CNOT3-FL, NOT box truncated CNOT3 or empty vector, Flag antibody to detect exogenous CNOT3 and antibodies against EEF1E and EEF1D

binding: no binding
B1: EEF1E, the auxiliary component of the multi-synthetase complex (endogenous) (protein, UniProt O43324 1-174)
chain: MAAAAELSLLEKSLGLSKGNKYSAQGERQIPVLQTNNGPSLTGLTTIAAHLVKQANKEYLLGSTAEEKAIVQQWLEYRVTQVDGHSSKNDIHTLLKDLNSYLEDKVYLTGYNFTLADILLYYGLHRFIVDLTVQEKEKYLNVSRWFCHIQHYPGIRQHLSSVVFIKNRLYTNSH
